Source: paper doi:10.1101/524959
No constants are given. Whether binding was seen depends on the method and setting. Binding seen in cells or lysates may run through a third protein. These calls come from enrichment with a bait or labelling near it, and not all partners need be listed. Each block holds one molecule with its values, some of them ahead of it.

Sequences of proteins named here, by UniProt entry; tags and fusion partners are left off.
UniProt Q9HFE8: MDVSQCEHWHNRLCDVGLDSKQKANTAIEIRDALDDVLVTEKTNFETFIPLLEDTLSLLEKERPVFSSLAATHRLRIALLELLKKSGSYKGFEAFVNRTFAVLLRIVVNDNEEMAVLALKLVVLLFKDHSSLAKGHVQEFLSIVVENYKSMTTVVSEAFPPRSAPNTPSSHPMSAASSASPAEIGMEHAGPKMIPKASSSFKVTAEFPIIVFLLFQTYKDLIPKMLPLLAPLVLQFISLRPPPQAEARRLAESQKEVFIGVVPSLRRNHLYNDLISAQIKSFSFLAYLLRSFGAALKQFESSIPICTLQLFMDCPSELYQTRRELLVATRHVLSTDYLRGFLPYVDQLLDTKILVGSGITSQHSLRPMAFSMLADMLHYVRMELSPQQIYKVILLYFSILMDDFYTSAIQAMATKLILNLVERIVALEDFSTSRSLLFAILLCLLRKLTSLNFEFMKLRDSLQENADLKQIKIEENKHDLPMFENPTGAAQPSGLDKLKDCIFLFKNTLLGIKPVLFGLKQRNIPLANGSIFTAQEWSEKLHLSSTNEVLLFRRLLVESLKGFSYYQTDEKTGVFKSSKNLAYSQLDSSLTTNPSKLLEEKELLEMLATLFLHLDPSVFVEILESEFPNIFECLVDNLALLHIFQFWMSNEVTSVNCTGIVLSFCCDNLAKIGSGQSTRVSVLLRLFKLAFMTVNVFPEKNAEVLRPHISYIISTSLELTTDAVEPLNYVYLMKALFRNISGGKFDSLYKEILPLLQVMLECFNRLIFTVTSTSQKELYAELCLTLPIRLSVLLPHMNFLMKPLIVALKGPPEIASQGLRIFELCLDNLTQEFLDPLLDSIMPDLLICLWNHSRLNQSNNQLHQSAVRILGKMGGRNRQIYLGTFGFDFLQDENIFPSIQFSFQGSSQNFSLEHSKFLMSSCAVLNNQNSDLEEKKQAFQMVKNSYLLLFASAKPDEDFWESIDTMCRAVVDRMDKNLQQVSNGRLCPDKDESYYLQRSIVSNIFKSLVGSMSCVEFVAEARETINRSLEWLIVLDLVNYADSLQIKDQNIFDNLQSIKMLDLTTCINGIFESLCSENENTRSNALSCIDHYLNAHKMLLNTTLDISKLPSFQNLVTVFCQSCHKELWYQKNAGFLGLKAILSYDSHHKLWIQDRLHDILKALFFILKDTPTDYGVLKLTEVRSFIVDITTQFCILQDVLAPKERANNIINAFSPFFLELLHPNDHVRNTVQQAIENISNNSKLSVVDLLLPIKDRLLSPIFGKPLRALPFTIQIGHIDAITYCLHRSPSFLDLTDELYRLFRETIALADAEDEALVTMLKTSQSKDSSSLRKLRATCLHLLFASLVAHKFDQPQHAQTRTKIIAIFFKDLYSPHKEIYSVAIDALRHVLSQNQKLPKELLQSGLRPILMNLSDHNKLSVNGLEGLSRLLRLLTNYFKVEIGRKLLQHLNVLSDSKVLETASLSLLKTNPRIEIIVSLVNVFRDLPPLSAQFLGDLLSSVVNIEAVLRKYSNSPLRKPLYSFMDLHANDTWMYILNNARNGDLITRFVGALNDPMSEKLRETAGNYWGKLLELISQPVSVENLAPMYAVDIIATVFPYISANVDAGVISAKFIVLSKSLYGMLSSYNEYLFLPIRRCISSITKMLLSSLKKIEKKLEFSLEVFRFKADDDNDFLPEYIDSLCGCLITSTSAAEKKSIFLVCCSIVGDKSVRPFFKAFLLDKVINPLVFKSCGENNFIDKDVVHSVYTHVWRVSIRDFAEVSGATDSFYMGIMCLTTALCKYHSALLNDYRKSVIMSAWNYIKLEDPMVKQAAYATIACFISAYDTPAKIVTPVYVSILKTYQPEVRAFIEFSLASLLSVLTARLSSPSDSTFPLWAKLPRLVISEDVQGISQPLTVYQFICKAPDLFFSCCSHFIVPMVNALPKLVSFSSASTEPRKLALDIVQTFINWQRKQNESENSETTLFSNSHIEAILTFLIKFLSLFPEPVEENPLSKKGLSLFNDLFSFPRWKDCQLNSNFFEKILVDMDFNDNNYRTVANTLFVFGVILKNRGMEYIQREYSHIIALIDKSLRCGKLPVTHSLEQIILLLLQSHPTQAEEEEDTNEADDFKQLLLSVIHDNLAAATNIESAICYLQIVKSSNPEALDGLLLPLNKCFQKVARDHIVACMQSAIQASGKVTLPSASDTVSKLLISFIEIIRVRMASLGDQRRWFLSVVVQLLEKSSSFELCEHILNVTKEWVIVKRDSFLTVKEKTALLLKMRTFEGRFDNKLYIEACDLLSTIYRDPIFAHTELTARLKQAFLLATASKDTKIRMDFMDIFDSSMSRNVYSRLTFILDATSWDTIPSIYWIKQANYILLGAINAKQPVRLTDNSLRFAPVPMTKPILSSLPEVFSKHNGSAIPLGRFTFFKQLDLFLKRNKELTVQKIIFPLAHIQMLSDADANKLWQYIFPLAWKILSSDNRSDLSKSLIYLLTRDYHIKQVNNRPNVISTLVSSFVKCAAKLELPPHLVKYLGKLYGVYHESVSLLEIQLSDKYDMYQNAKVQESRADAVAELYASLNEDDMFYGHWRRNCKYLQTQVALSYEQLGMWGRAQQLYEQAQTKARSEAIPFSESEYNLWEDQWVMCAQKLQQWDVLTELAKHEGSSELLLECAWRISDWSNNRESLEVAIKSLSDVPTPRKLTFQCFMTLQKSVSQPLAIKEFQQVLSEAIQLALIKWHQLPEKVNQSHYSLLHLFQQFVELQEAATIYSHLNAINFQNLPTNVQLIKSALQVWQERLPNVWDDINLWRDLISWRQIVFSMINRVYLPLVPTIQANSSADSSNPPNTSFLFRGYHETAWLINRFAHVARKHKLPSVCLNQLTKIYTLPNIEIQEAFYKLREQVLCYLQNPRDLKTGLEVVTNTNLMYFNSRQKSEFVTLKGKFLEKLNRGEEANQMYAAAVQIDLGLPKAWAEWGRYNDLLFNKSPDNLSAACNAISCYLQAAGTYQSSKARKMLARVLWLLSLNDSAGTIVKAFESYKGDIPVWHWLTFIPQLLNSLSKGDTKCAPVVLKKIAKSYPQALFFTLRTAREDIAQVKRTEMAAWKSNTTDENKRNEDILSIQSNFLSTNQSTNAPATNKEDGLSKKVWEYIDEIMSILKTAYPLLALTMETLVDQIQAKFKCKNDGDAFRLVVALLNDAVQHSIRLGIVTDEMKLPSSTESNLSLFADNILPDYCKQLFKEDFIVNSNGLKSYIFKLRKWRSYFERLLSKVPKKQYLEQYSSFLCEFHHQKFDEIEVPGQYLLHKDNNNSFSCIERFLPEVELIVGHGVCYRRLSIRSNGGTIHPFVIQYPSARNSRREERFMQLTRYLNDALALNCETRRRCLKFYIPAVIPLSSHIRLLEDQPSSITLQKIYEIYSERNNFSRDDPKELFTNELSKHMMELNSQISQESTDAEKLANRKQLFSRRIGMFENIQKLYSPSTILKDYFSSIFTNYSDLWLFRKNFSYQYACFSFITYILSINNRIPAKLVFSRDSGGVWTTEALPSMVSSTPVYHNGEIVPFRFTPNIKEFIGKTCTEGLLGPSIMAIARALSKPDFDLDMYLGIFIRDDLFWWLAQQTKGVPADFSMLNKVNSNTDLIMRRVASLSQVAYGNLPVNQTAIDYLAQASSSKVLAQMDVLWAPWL

What was measured:
Test in all cases: affinity purification with mass spectrometry
Spt20-300 (S. pombe) = target: T1, Spt20-300 (S. pombe) (UniProt O14174)
T1 sequence: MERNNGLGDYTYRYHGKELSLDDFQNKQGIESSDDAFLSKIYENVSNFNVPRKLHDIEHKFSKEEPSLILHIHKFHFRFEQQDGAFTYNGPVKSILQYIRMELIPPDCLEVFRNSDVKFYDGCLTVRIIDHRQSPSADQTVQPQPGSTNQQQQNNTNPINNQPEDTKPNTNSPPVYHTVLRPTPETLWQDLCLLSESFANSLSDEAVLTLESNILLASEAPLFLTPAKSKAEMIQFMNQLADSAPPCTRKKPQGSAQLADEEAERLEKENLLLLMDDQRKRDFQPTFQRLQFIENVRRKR

Tti2 (S. pombe) = target: T2, Tti2 (S. pombe) (UniProt O94729)
T2 sequence: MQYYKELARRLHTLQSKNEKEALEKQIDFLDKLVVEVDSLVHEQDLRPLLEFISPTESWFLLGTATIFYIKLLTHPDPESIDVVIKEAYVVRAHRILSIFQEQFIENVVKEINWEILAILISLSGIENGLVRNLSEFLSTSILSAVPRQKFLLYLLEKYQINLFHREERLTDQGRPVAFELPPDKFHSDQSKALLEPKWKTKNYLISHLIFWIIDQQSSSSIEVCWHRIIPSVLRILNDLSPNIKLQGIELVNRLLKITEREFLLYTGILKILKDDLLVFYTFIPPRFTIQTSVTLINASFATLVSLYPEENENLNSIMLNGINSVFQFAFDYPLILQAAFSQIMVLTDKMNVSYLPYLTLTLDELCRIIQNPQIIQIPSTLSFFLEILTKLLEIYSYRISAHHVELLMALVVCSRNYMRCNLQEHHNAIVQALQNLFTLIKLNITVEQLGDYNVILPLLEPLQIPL

Spt20 (S. pombe) = target: T3, Spt20 (S. pombe) (UniProt O14174)
T3 sequence: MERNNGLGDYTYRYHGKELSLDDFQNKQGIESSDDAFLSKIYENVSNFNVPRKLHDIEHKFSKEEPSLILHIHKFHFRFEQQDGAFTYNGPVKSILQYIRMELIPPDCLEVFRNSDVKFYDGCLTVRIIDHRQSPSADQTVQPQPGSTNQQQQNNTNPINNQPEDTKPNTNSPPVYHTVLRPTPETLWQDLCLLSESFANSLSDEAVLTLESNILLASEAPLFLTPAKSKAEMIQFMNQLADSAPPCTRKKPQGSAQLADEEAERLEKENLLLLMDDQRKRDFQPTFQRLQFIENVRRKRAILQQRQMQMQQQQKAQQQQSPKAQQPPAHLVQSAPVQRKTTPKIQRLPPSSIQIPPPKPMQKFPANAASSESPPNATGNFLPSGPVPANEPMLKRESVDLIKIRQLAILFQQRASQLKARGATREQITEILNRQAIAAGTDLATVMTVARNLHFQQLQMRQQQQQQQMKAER

Mst1-TAP (S. pombe) = target: T4, Mst1-TAP (S. pombe) (UniProt O94446)
T4 sequence: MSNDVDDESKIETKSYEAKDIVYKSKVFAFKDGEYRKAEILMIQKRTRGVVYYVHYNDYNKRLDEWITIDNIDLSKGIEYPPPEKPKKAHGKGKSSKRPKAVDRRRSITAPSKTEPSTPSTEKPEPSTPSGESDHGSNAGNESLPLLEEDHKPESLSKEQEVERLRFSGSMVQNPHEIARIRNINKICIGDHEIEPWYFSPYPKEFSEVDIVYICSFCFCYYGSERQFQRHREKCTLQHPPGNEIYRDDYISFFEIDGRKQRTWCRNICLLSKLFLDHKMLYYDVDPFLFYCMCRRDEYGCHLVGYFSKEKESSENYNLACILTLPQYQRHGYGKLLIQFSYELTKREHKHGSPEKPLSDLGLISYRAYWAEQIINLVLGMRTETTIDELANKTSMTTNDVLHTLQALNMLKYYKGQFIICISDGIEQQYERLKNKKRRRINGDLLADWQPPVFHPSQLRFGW

Spt7-TAP (S. pombe) = target: T5, Spt7-TAP (S. pombe) (UniProt P87152)
T5 sequence: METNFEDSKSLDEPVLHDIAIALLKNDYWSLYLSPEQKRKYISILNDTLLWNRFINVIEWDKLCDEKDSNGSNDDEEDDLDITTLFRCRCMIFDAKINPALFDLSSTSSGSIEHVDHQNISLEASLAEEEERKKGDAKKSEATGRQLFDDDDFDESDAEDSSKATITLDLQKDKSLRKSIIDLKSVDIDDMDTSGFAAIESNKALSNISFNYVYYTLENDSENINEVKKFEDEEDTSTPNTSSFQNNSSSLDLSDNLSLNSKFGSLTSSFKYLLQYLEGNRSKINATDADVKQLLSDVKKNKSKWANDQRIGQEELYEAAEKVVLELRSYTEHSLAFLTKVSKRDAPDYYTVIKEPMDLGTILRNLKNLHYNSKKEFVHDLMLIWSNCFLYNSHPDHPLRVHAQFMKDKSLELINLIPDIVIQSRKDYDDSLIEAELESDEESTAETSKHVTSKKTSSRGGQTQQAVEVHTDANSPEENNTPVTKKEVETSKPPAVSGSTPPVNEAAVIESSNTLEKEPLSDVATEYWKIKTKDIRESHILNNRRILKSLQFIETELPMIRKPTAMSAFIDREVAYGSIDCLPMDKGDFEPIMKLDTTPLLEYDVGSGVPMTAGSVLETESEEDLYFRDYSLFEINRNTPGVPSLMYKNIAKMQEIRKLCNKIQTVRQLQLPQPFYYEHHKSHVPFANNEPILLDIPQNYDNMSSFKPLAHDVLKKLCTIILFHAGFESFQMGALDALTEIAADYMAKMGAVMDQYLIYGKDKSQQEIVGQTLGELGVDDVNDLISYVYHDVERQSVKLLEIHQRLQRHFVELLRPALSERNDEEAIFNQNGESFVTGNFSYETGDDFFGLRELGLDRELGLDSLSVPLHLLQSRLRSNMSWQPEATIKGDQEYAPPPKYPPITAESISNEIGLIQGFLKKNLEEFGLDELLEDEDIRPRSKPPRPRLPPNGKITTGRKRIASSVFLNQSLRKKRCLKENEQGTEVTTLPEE

B1: Spt20 (protein, UniProt O14174 1-473)
chain: MERNNGLGDYTYRYHGKELSLDDFQNKQGIESSDDAFLSKIYENVSNFNVPRKLHDIEHKFSKEEPSLILHIHKFHFRFEQQDGAFTYNGPVKSILQYIRMELIPPDCLEVFRNSDVKFYDGCLTVRIIDHRQSPSADQTVQPQPGSTNQQQQNNTNPINNQPEDTKPNTNSPPVYHTVLRPTPETLWQDLCLLSESFANSLSDEAVLTLESNILLASEAPLFLTPAKSKAEMIQFMNQLADSAPPCTRKKPQGSAQLADEEAERLEKENLLLLMDDQRKRDFQPTFQRLQFIENVRRKRAILQQRQMQMQQQQKAQQQQSPKAQQPPAHLVQSAPVQRKTTPKIQRLPPSSIQIPPPKPMQKFPANAASSESPPNATGNFLPSGPVPANEPMLKRESVDLIKIRQLAILFQQRASQLKARGATREQITEILNRQAIAAGTDLATVMTVARNLHFQQLQMRQQQQQQQMKAER
binding (Spt7-TAP (S. pombe)): binds

B2: Spt20-290 (domain or fragment, UniProt O14174 1-290)
chain: MERNNGLGDYTYRYHGKELSLDDFQNKQGIESSDDAFLSKIYENVSNFNVPRKLHDIEHKFSKEEPSLILHIHKFHFRFEQQDGAFTYNGPVKSILQYIRMELIPPDCLEVFRNSDVKFYDGCLTVRIIDHRQSPSADQTVQPQPGSTNQQQQNNTNPINNQPEDTKPNTNSPPVYHTVLRPTPETLWQDLCLLSESFANSLSDEAVLTLESNILLASEAPLFLTPAKSKAEMIQFMNQLADSAPPCTRKKPQGSAQLADEEAERLEKENLLLLMDDQRKRDFQPTFQRL
binding (Spt7-TAP (S. pombe)): binds

B3: Spt20-300 (domain or fragment, UniProt O14174 1-300)
chain: MERNNGLGDYTYRYHGKELSLDDFQNKQGIESSDDAFLSKIYENVSNFNVPRKLHDIEHKFSKEEPSLILHIHKFHFRFEQQDGAFTYNGPVKSILQYIRMELIPPDCLEVFRNSDVKFYDGCLTVRIIDHRQSPSADQTVQPQPGSTNQQQQNNTNPINNQPEDTKPNTNSPPVYHTVLRPTPETLWQDLCLLSESFANSLSDEAVLTLESNILLASEAPLFLTPAKSKAEMIQFMNQLADSAPPCTRKKPQGSAQLADEEAERLEKENLLLLMDDQRKRDFQPTFQRLQFIENVRRKR
binding (Spt7-TAP (S. pombe)): binds

Next, values leading:

binding (Spt20-300 (S. pombe)): binds | binding (Tti2 (S. pombe)): binds | binding (Spt20 (S. pombe)): binds
Molecule: Tra1 (from UniProt Q9HFE8 1-3661)

binding (Tti2 (S. pombe)): binds | binding (Mst1-TAP (S. pombe)): binds
Molecule: Tra2 (from UniProt Q10064 1-3655)

binding (Spt7-TAP (S. pombe)): binds
B4: Spt20-HITΔ (protein, UniProt O14174)
chain: MERNNGLGDYTYRYHGKELSLDDFQNKQGIESSDDAFLSKIYENVSNFNVPRKLHDIEHKFSKEEPSLILHIHKFHFRFEQQDGAFTYNGPVKSILQYIRMELIPPDCLEVFRNSDVKFYDGCLTVRIIDHRQSPSADQTVQPQPGSTNQQQQNNTNPINNQPEDTKPNTNSPPVYHTVLRPTPETLWQDLCLLSESFANSLSDEAVLTLESNILLASEAPLFLTPAKSKAEMIQFMNQLADSAPPCTRKKPQGSAQLADEEAERLEKENLLLLMDDQRKRDFQPTFQRAILQQRQMQMQQQQKAQQQQSPKAQQPPAHLVQSAPVQRKTTPKIQRLPPSSIQIPPPKPMQKFPANAASSESPPNATGNFLPSGPVPANEPMLKRESVDLIKIRQLAILFQQRASQLKARGATREQITEILNRQAIAAGTDLATVMTVARNLHFQQLQMRQQQQQQQMKAER
